Test results as given in PMC4882601, “Binding of Human Fibrinogen to MRP Enhances Streptococcus suis Survival in Host Blood in a αXβ2 Integrin-dependent Manner” (Scientific Reports, 2016).
No constants are given. Whether binding was seen depends on the method and setting. Some binding calls cover weakened binding; strength is not graded here. Where a sequence is shown, tags or fusion partners need not be part of it.

The chains behind the UniProt entries cited, without tags or fusion partners. Residues count along the entry.
UniProt P02675, residues 45-491: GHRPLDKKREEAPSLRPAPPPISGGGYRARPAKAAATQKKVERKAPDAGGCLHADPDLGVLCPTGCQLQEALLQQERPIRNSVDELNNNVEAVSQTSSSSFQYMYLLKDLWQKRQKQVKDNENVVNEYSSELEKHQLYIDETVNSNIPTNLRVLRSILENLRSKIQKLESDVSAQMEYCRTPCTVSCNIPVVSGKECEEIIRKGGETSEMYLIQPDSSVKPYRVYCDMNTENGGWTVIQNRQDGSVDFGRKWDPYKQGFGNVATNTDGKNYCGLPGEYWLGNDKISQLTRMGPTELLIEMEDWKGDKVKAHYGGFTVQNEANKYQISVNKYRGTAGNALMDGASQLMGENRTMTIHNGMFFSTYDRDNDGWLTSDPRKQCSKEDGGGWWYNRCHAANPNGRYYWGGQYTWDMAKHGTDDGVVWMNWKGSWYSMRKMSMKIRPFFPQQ

Target: human fibrinogen Bβ chain (human) (UniProt P02675)
Experiment: far-Western, overlay or dot blot; purified hFg separated by reducing SDS-PAGE, transferred to PVDF, probed with biotinylated hisMRP proteins (20 μg/ml), detected with HRP-streptavidin; both purified

Binder | binding
hisMRP-N (a.a. 48-721, the N-terminus of muramidase-released protein) (domain or fragment, biotin (in the far-Western and on the BLI biosensors), Muramidase-released protein (MRP) of Streptococcus suis serotype 2 strain 05ZYH33, gene SSU05_0753, residues 48-721; also called hisMRP-N_(48-721); source: cloned into pET-28a, expressed, purified by Ni-chelating chromatography) DETVASSEPTIASSVAPASTEAVAEEAEKTNAENTSAVATTSTEVEKAKAVLEQVTSESPLLAGLGQKELAKTEDATLAKAIEDAQTKLAAAKAILADSEATVEQVEAQVAAVKVANEALGNELQKYTVDGLLTAALDTVAPDTTASTLKVGDGEGTLLDSTTTATPSMAEPNGAAIAPHTLRTQDGIKATSEPNWYTFESYDLYSYNKNMASSTYKGAEVDAYIRYSLDNDSSTTAVLAELVSRTTGDVLEKYTIEPGESVTFSHPTKVNANNSNITVTYDTSLASANTPGALKFSANDDVYSTIIVPAYQINTTRYVTESGKVLATYGLQTIAGQVVTPSSVRVFTGYDYVATTTKAVQGPYPKGTVYLAGTVQKDTVQYKVIREIVENDQAVLKFYYLDPTYKGEVDWRGTDTTGFIELLTTSPTTYKVGTIYDYNINSKITAPFTIDPTKNVMVFKESEQNEQGSKYRVIAQWSGDETTKGIYGKIYIATQVWTTKLGTNEWGWFDYSDDQAGIKFNNKGFWPAGVQNTLRNATPATAVETTYIYKESSKYGDVIVEYYDTDGKQIVNSVVDTPKSALGTEYNTDVDRRPASLVAADGTVYFYKEVKSDSAKTTGTVVAGTTTVKYVYEKAGSVNVNFVDINGKVIKAPVSDEKDAKPGYNYDTDLDQKL | binds
hisMRP-N2 (a.a. 283-721 of muramidase-released protein, mainly consisting of β-sheets) (domain or fragment, UniProt P32653 283-721, biotin (in the far-Western and on the BLI biosensors)) TAVLAELVSRTTGDVLEKYTIEPGESVTFSHPTKVNANNSNITVTYDTSLASANTPGALKFSANDDVYSTIIVPAYQINTTRYVTESGKVLATYGLQTIAGQVVTPSSVRVFTGYDYVATTTKAVQGPYPKGTVYLAGTVQKDTVQYKVIREIVENDQAVLKFYYLDPTYKGEVDWRGTDTTGFIELLTTSPTTYKVGTIYDYNINSKITAPFTIDPTKNVMVFKESEQNEQGSKYRVIAQWSGDETTKGIYGKIYIATQVWTTKLGTNEWGWFDYSDDQAGIKFNNKGFWPAGVQNTLRNATPATAVETTYIYKESSKYGDVIVEYYDTDGKQIVNSVVDTPKSALGTEYNTDVDRRPASLVAADGTVYFYKEVKSDSAKTTGTVVAGTTTVKYVYEKAGSVNVNFVDINGKVIKAPVSDEKDAKPGYNYDTDLDQKL | binds
